## Library compounds against nucleic acid targets

From ROBIN, a set of small-molecule microarray screens (doi:10.1002/anie.202211358).

Targets (5′ to 3′):
SAM-II: SAM-II riboswitch RNA pseudoknot, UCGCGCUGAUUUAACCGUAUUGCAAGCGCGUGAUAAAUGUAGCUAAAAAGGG. About 200 hits among about 21,000 compounds.
PreQ1: PreQ1 riboswitch RNA pseudoknot, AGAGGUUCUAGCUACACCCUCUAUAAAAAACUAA. From B. subtilis. About 170 hits among about 24,000 compounds.
TPP: TPP riboswitch RNA three-way junction, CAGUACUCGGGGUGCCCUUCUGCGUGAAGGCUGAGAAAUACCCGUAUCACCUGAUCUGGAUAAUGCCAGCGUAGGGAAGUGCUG. About 160 hits among about 24,000 compounds.

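Compounds were printed on reactive glass slides in duplicate spots, a dye-labelled oligonucleotide was laid over them, and the fluorescence left after washing was read. The data file lists only calls. An earlier report of the laboratory on the PreQ1, TPP and SAM-II riboswitches (doi:10.1038/s41467-019-09493-3) used 1 µM RNA for 2 h and required a mean Z-score above 3 (spot signal-to-noise against the whole library), a score well above that on a control array, and duplicate spots agreeing (coefficient of variation under 100); it then also set aside compounds that hit other targets, which this list keeps. The cut-offs behind this list may differ. A missing hit is not proof of no binding, and a hit is not a measured affinity.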
“active” means called a hit, “inactive” means screened and not called a hit.
This is an unselected part of the compounds tested.
A dash means that no call is listed here.

| structure | SAM-II | PreQ1 | TPP |
|---|---|---|---|
| `Cc1nccn1CC(O)Cn1c2ccc(Cl)cc2c2cc(Cl)ccc21` (centres undefined) | inactive | inactive | inactive |
| `COc1cc(C)nc(N(CCO)CCO)n1` | inactive | inactive | inactive |
| `O=C(Nc1nc2c(s1)CCCC2)c1cccc(CN2CC[C@H](O)C2)c1` | inactive | inactive | inactive |
| `C=CCn1c(N)c(C#N)c2nc3ccccc3nc21` | inactive | inactive | inactive |
| `CCc1cnc(N)nc1N1CCN(c2ccc(C)cc2)CC1` | inactive | inactive | inactive |
| `Cc1ccc2nc(-c3ccccc3)nc(-c3ccc(N)cc3)c2c1` | inactive | inactive | inactive |
| `CC(C)c1nc(NCCCO)c(C#N)c2c1COC(C)(C)C2` | inactive | inactive | inactive |
| `COc1ccccc1C(CCNCc1ccc(N(C)C)cc1)C1CCOC(C)(C)C1` (centres undefined) | inactive | inactive | inactive |
| `CN(C)c1ccc(CNCCC(Cc2ccccc2)c2ccco2)cc1` (centres undefined) | inactive | inactive | inactive |
| `Cc1cnc(N)nc1NCC[C@@H]1C[C@@H]2C=C[C@H]1C2` | inactive | active | active |
| `O=C(Cn1ncc(N2CCNCC2)cc1=O)NCCc1ccc(F)cc1` | inactive | inactive | inactive |
| `Cc1nc2ncccn2c1C(=O)NCC1(O)CCNC1` (centres undefined) | inactive | inactive | inactive |
| `CCCCNCC(=O)c1c(N)n(C)c(=O)n(C)c1=O` | inactive | inactive | inactive |
| `CC(Cc1ccccc1F)NCC1(Cn2ccnc2)CC1` (centres undefined) | inactive | inactive | inactive |
| `COc1ccc(NS(=O)(=O)c2ccc(N)cc2)cc1` | inactive | inactive | inactive |
| `O=C(CN1CCC2(CC1)OCCCC2O)N1CCOCC1` (centres undefined) | inactive | inactive | inactive |
| `CCOC(=O)c1cnc(C)nc1Nc1ccc(F)cc1` | - | inactive | inactive |
| `Cc1nc2c(-c3ccccc3)cnn2c(NC2CCCC2)c1C` | - | inactive | inactive |
| `CC(=O)Oc1ccccc1C(=O)OCCNC1=NS(=O)(=O)c2ccccc21` | inactive | inactive | inactive |
| `CCCCNc1nc2c(-c3ccc(OC)cc3)nnn2c2ccccc12` | inactive | inactive | inactive |
| `COc1cccc([C@@H]2CCN(Cc3cccn3-c3cccnc3)C[C@H]2O)c1` | inactive | inactive | inactive |
| `O=C(c1cnc(-c2ccncc2)nc1)N1CCCC2(CCNC2)C1` (centres undefined) | inactive | inactive | inactive |
| `COc1ccc(C(=O)N2C[C@@H](O)[C@H](NCCc3c[nH]cn3)C2)cc1` | inactive | inactive | inactive |
| `CC(C)(CNc1cccc(Cl)c1)NC(=O)c1cccc(NCC(=O)O)c1` | inactive | inactive | inactive |
| `NS(=O)(=O)N1CCN(C(=O)c2cn(CC3CCCNC3)nn2)CC1` (centres undefined) | inactive | inactive | inactive |
| `CS(=O)(=O)c1ccc(-c2cc(F)cc3sc(N)nc23)cc1` | inactive | inactive | inactive |
| `CCOc1ccc([C@@H]2C[C@H](c3ccc(OCc4ccccc4)cc3)n3nc(N)nc3N2)cc1` | inactive | inactive | inactive |
| `Cc1cc(N[C@@H](CO)C(N)=O)n2nc(C)c(C)c2n1` | inactive | inactive | inactive |
| `COC(=O)C(Nc1cc(C)nc2nc(Cc3ccc(Cl)cc3)nn12)c1ccccc1` (centres undefined) | - | inactive | inactive |
| `CC1=C(C(=O)OC(C)C)C2(C(=O)Nc3ccc(Br)cc32)C(C#N)=C(N)O1` (centres undefined) | inactive | inactive | inactive |
| `CSc1ccc(Cc2nc(C)nn2CCO)cc1` | inactive | inactive | inactive |
| `Cc1csc(CCCNC(=O)c2cccc(C3CCCNC3)c2)n1` (centres undefined) | inactive | inactive | inactive |
| `CC(C)n1cc(C(=O)N(CCO)CC23CC4CC(CC(C4)C2)C3)cn1` | inactive | inactive | inactive |
| `Cc1cc2c(c(=O)n1CCN(C)C)C(c1ccccc1F)C(C#N)=C(N)O2` (centres undefined) | inactive | inactive | inactive |
| `O=C(Nc1ccccc1OC(F)(F)F)N1CCCCC1CO` (centres undefined) | inactive | inactive | inactive |
| `Cc1ccc(S(=O)c2ccc([N+](=O)[O-])c3nonc23)cc1` (centres undefined) | inactive | inactive | inactive |
| `O=C1CC(NCCC2=CCCCC2)C(=O)N1c1ccc(F)cc1` (centres undefined) | inactive | inactive | inactive |
| `Cc1ccc2[nH]c(C)c(C(O)CN3CCCCC3)c2c1` (centres undefined) | - | inactive | inactive |
| `Cc1ccnc(N2C(=O)c3ccccc3C2Nc2cccc(Cl)c2C)c1` (centres undefined) | inactive | inactive | inactive |
| `CC1(C)CC(NC(=O)C23CCC(C)(C(=O)O2)C3(C)C)CC(C)(C)N1` (centres undefined) | inactive | inactive | inactive |
| `Cc1ccc(OCC(O)Cn2c(C)nc3ccccc32)c(C)c1` (centres undefined) | - | inactive | inactive |
| `COCCN(C)C[C@@H]1CN(Cc2cccc3c2oc2ccccc23)C[C@@H]1CO` | inactive | inactive | inactive |
| `CCC1CN(C(=O)c2cc(N)ccn2)CCC(=O)N1Cc1ccccc1` (centres undefined) | inactive | inactive | inactive |
| `CC(C)=CCN1CCN(Cc2cn(CCO)nc2C)[C@H]2CS(=O)(=O)C[C@H]21` | inactive | inactive | inactive |
| `COc1ccc(OC)c(C2C(C#N)=C(N)Oc3c2ccc2ccccc32)c1` (centres undefined) | inactive | inactive | inactive |
| `c1cc(-c2cnco2)cc(-n2ccnc2-c2cc3n(n2)CCNC3)c1` | inactive | inactive | inactive |
| `Nc1ccccc1-c1nc2cnccc2[nH]1` | inactive | inactive | inactive |
| `O=c1cc(-c2ccc(O)cc2)oc2cc(O)cc(O)c12` | inactive | inactive | inactive |
| `Cc1cc(C)c(OCC(O)CN2CCCCC2C)c(C)c1` (centres undefined) | inactive | inactive | inactive |
| `CCOC(=O)N1CCN([N+]([O-])=NOc2ccc([N+](=O)[O-])cc2C#N)CC1` | inactive | inactive | inactive |
| `CC(C)Oc1cc(NCc2cc3ccc(F)cc3[nH]c2=O)nc(N)n1` | active | inactive | inactive |
| `CCCNc1cc(C)nc2nc(-c3ccc(OC)cc3)nn12` | - | inactive | inactive |
| `C=CCn1c(C(O)c2ccccc2)nc2ccccc21` (centres undefined) | inactive | inactive | inactive |
| `COc1ccccc1Nc1cc(C)nc2c(OC)cccc12` | inactive | inactive | inactive |
| `COc1ccnc(CS(=O)c2nc3ccc(OC(F)F)cc3[nH]2)c1OC` (centres undefined) | inactive | inactive | inactive |
| `CCCc1cc(C(=O)NCC(O)CN2CCNCC2)no1` (centres undefined) | inactive | inactive | inactive |
| `Cc1ncsc1CCC(=O)N1CC[C@H](N2CCN(C)CC2)[C@H](CCCO)C1` | inactive | inactive | inactive |
| `CC1CCN(CC(O)c2c[nH]c3ccccc23)CC1` (centres undefined) | - | inactive | inactive |
| `Nc1nc(CCC(=O)N2CCCN(Cc3ccc(F)cc3)CC2)cs1` | inactive | inactive | inactive |
| `Cc1nnc2c(Nc3cccc(C(F)(F)F)c3)nc3ccccc3n12` | - | inactive | inactive |
| `COCCOc1ccc2c(c1)ncn2-c1ccc2cccc(N3CCC(N)CC3)c2n1` | inactive | inactive | inactive |
| `FC(F)(F)c1cccc(Nc2nc(-c3ccncc3)cs2)c1` | inactive | inactive | inactive |
| `Oc1cc(O)cc(C=Cc2ccc(O)c(O)c2)c1` | inactive | inactive | inactive |
| `Fc1ccc(CNCc2ccc3c(c2)OCO3)cc1` | inactive | inactive | inactive |
| `C=CCN1CCN(Cc2cccc(OCC(O)CN(C)C3CCCCC3)c2)CC1` (centres undefined) | inactive | inactive | inactive |
| `CN1C(=O)NC(=O)C(/N=N/c2ccc(Cl)cc2)C1=O` (centres undefined) | inactive | inactive | inactive |
| `CN(C)c1ccc(-c2nc3cc(N)ccc3o2)cc1` | inactive | inactive | inactive |
| `CCCc1cc(Nc2cccc(C(=O)N3CCCCCC3)c2)n2nc(-c3cccnc3)nc2n1` | - | inactive | inactive |
| `N#CC1=C(N)OC2=C(C(=O)CC(c3ccccc3)C2)C1C1CCCCC1` (centres undefined) | inactive | inactive | inactive |
| `Cc1ccc(Cl)cc1N1CCN(CCCNc2ncnc3onc(-c4ccc(F)cc4)c23)CC1` | - | inactive | inactive |
| `O=C1c2ccccc2C(Nc2ccc(F)cc2)N1c1ccc(Cl)cc1` (centres undefined) | inactive | inactive | inactive |
| `CCN1C(=O)C2(c3ccccc31)c1c(oc3ccccc3c1=O)C(=O)N2CCO` (centres undefined) | - | inactive | inactive |

7 of the entries, repeated:

structure,SAM-II,PreQ1,TPP
CC(C)=CCN1CCN(Cc2cn(CCO)nc2C)[C@H]2CS(=O)(=O)C[C@H]21,inactive,inactive,inactive
Cc1cc2c(c(=O)n1CCN(C)C)C(c1ccccc1F)C(C#N)=C(N)O2 (centres undefined),inactive,inactive,inactive
C=CCn1c(C(O)c2ccccc2)nc2ccccc21 (centres undefined),inactive,inactive,inactive
Cc1nc2ncccn2c1C(=O)NCC1(O)CCNC1 (centres undefined),inactive,inactive,inactive
COc1ccc(C(=O)N2C[C@@H](O)[C@H](NCCc3c[nH]cn3)C2)cc1,inactive,inactive,inactive
COc1cc(C)nc(N(CCO)CCO)n1,inactive,inactive,inactive
Cc1nc2c(-c3ccccc3)cnn2c(NC2CCCC2)c1C,-,inactive,inactive